Test results: the supplement of paper PMC4604168 (melanoma cell lines)
The list shows a part of the results. Single values are uncertain, as repeats are few or missing.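 Imaging used 1,536-well plates; nuclei positive for cleaved PARP by antibody were divided by total DNA-stained nuclei to yield the apoptosis fraction. Doses for screening kept most cells viable, and cell lines differ markedly in resting and induced cleaved-PARP levels.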

System: MZ2-MEL
Assay: cleaved PARP positive nuclei fraction relative to DMSO control; melanoma cells; higher = more apoptosis
Settings: library dose: low library concentration; 72 h

| SMILES | cleaved PARP positive nuclei fraction |
| --- | --- |
| CC(C)(C)c1cnc(CSc2cnc(NC(=O)C3CCNCC3)s2)o1 + CCc1ccc(CCOc2ccc(CC3SC(=O)NC3=O)cc2)nc1 [pioglitazone] (first compound 0.01 µM, partner dose 2 µM) | 28.6% |
| COc1cc(Nc2ncc(F)c(Nc3ccc4c(n3)NC(=O)C(C)(C)O4)n2)cc(OC)c1OC [Tamatinib] + Cn1cc(/C=C2\C(=O)Nc3cccnc32)c2ccccc21 [GW441756] (first compound 0.4 µM, partner dose 0.4 µM) | 129% |
| C#Cc1cccc(Nc2ncnc3cc(OCCOC)c(OCCOC)cc23)c1 [erlotinib] + N#Cc1c(O)c2c(-c3ccc(-c4ccccc4O)cc3)csc2[nH]c1=O [A769662] (first compound 0.8 µM, partner dose 2 µM) | 331% |
| OCCn1cc(-c2cnc3nnn(Cc4ccc5ncccc5c4)c3n2)cn1 + COc1cc(N2CCC(N3CCN(C)CC3)CC2)ccc1Nc1ncc(Cl)c(Nc2ccccc2S(=O)(=O)C(C)C)n1 [NVP-TAE684] (first compound 1 µM, partner dose 0.08 µM) | 69.1% |
| O=C(Nc1cccc(Cl)c1)Nc1ncc(CCNc2ncnc3ccsc23)s1 + COc1ccc(COc2ccc(Cc3cnc(N)nc3N)cc2OC)cc1 [GW2580] (first compound 0.0008 µM, partner dose 1 µM) | 54.7% |
| Cc1nc(Nc2ncc(C(=O)Nc3c(C)cccc3Cl)s2)cc(N2CCN(CCO)CC2)n1 [dasatanib] + O=C1NC(=O)/C(=C/c2ccc(-c3ccc(F)cc3O)o2)S1 [AS252424] (first compound 0.004 µM, partner dose 1 µM) | 222% |

An excerpt of these results, with tabs:
SMILES	cleaved PARP positive nuclei fraction
CC(C)(C)c1cnc(CSc2cnc(NC(=O)C3CCNCC3)s2)o1 + CCc1ccc(CCOc2ccc(CC3SC(=O)NC3=O)cc2)nc1 [pioglitazone] (first compound 0.01 µM, partner dose 2 µM)	28.6%
COc1cc(Nc2ncc(F)c(Nc3ccc4c(n3)NC(=O)C(C)(C)O4)n2)cc(OC)c1OC [Tamatinib] + Cn1cc(/C=C2\C(=O)Nc3cccnc32)c2ccccc21 [GW441756] (first compound 0.4 µM, partner dose 0.4 µM)	129%
